Measurements taken from PMC7156724, “Potent BRD4 inhibitor suppresses cancer cell-macrophage interaction” (Nature Communications, 2020).

Experiments:
Details in all cases: in % (unit assumed)
[1] = Metabolic stability assay, rat liver microsomes
Experimental: (§1) 7. Metabolic stability assay. The metabolic profile of NHWD-870 was determined using mouse, rat, dog, monkey, and human liver microsomes using the protocols […]
(§2) No. Compound ID Exat Mass Stock Conc.
(§3) 1) 100 mM potassium phosphate buffer, PH7.4; 2) 10mM MgCI2
(§4) 1) Intermediate solution: Dilute 5 μL of compound or control from stock solution (10 mM) with 45 uL DMSO,then mixed with 450 μL 1:1 Methanol/Water (Conc.: 10 0 […]
(§5) 2) Working solution: Dilute 50 μL from intermediate solution with 450 μL 100 mM potassium phosphate buffer (Conc.: 10 μM, 4.5%MeOH)
(§6) (3) NADPH regenerating system (final Isocitric dehydrogenase conc.= 1 unit/mL at […]
(§7) 1) β-Nicotinamide adenine dinucleotide phosphate, Vendor: sigma Cat. No. N0505
(§8) 2) Isocitric acid, Vendor: Sigma Cat. No. I1252
(§9) 3) Isocitric dehydrogenase, Vendor: sigma Cat. No. I2002
(§10) (4) Liver microsome solution preparation (final concentration o f 0.5 mg protein/mL) […]
(§11) Cold ACN including 100 ng/mL Tolbutamide and 100 ng/mL Labetalol as internal […]
(§12) 1) Add 10 μL compound or control working solution/well to all plates (T0, T5, T10, T20, T30, T60, NCF60) except matrix blank.
(§13) 2) Dispense 680 μL/well microsome solution to 96-well plate as reserv oir according to […]
(§14) plate map. Then add 80 μL/well to every plate by Apricot, incubate the mixture of microsome solution and compound at 37℃ for about 10 min.
(§15) 3) Add 10 μL 100 mM potassium phosphate buffer/well to NCF60, incubate at 37℃, […]
(§16) 4) After pre-warming, dispense 90 μL/well NADPH regenerating system to 96-well plate as reservoir according to the plate map. Then add 10 μL/well to every plate by Apricot to start reaction.
(§17) 5) Incubate at 37℃, start timer 2.
(§18) 6) Add 300 (μL/well) stop solution (cold in 4℃, including 100 ng/mL Tolbutamide and 100 ng/mL Labetalol) to terminate the reaction.
(§19) 7) The sampling plates are shaked for approx 10 min.
(§20) 8) Samples are centrifuged at 4000 rpm for 20 min under 4℃.
(§21) 9) While centrifuging, load 8×new 96-well plate with 300 μL HPLC water, then transfer 100 μL supernatant, mixed for LC/MS/MS.
(§22) Use equation of first order kinetics to calculate t1/2 and Clin t(mic): […]
(§23) Equation of first order kinetics: […]

[2] = Metabolic stability assay, mouse liver microsomes
Experimental: as §1, §2, §3, §4, §5, §6, §7, §8, §9, §10, §11, §12, §13, §14, §15, §16, §17, §18, §19, §20, §21, §22, §23

[3] = Metabolic stability assay, human liver microsomes
Experimental: as §1, §2, §3, §4, §5, §6, §7, §8, §9, §10, §11, §12, §13, §14, §15, §16, §17, §18, §19, §20, §21, §22, §23

[4] = Metabolic stability assay, monkey liver microsomes
Experimental: as §1, §2, §3, §4, §5, §6, §7, §8, §9, §10, §11, §12, §13, §14, §15, §16, §17, §18, §19, §20, §21, §22, §23

[5] = Metabolic stability assay, dog liver microsomes
Experimental: as §1, §2, §3, §4, §5, §6, §7, §8, §9, §10, §11, §12, §13, §14, §15, §16, §17, §18, §19, §20, §21, §22, §23

## CCCNCC(O)COc1ccccc1C(=O)CCc1ccccc1 (stereo not drawn) [Propafenone]
[1]; time 0
  Remaining in rat liver microsomes (Sup Fig.6b): 100
[1]; time 5
  Remaining in rat liver microsomes (Sup Fig.6b): 17.074
[1]; time 10
  Remaining in rat liver microsomes (Sup Fig.6b): 2.145
[1]; time 20
  Remaining in rat liver microsomes (Sup Fig.6b): 0.167
[1]; time 30
  Remaining in rat liver microsomes (Sup Fig.6b): 0.05
[1]; time 60
  Remaining in rat liver microsomes (Sup Fig.6b): 0
[2]; time 0
  Remaining in mouse liver microsomes (Sup Fig.6a): 100
[2]; time 5
  Remaining in mouse liver microsomes (Sup Fig.6a): 9.879
[2]; time 10
  Remaining in mouse liver microsomes (Sup Fig.6a): 0.346
[2]; time 20
  Remaining in mouse liver microsomes (Sup Fig.6a): 0.055
[2]; time 30
  Remaining in mouse liver microsomes (Sup Fig.6a): 0.045
[2]; time 60
  Remaining in mouse liver microsomes (Sup Fig.6a): 0
[3]; time 0
  Remaining in Human liver microsomes (Sup Fig.6e): 100
[3]; time 5
  Remaining in Human liver microsomes (Sup Fig.6e): 82.99
[3]; time 10
  Remaining in Human liver microsomes (Sup Fig.6e): 64.782
[3]; time 20
  Remaining in Human liver microsomes (Sup Fig.6e): 40.862
[3]; time 30
  Remaining in Human liver microsomes (Sup Fig.6e): 13.966
[3]; time 60
  Remaining in Human liver microsomes (Sup Fig.6e): 0.093
[4]; time 0
  Remaining in Monkey liver microsomes (Sup Fig.6d): 100
[4]; time 5
  Remaining in Monkey liver microsomes (Sup Fig.6d): 64.476
[4]; time 10
  Remaining in Monkey liver microsomes (Sup Fig.6d): 46.872
[4]; time 20
  Remaining in Monkey liver microsomes (Sup Fig.6d): 23.235
[4]; time 30
  Remaining in Monkey liver microsomes (Sup Fig.6d): 5.35
[4]; time 60
  Remaining in Monkey liver microsomes (Sup Fig.6d): 0.343
[5]; time 0
  Remaining in Dog liver microsomes (Sup Fig.6c): 100
[5]; time 5
  Remaining in Dog liver microsomes (Sup Fig.6c): 0.263
[5]; time 10
  Remaining in Dog liver microsomes (Sup Fig.6c): 0.176
[5]; time 20
  Remaining in Dog liver microsomes (Sup Fig.6c): 0.237
[5]; time 30
  Remaining in Dog liver microsomes (Sup Fig.6c): 0.192
[5]; time 60
  Remaining in Dog liver microsomes (Sup Fig.6c): 0.169
